Measured values: patent US9486456B2, “Treatment of esophageal motility disorder using sepiapterin, tetrahydrobiopterin and derivatives thereof” (The Board of Regents of the University of Texas System, priority 2006, dated 2016)
At least one structure is not confirmed: it was looked up by name or label, or the drawing left a doubt.

System: TNF-alpha
Assay: TNF alpha level in circulation of diabetic female rat
Assay type: in vivo

C[C@H](O)[C@H](O)[C@H]1CNc2nc(N)[nH]c(=O)c2N1 [tetrahydrobiopterin]
Effect on elevated TNF-alpha levels in circulation: decreased
